According to PMC7449455 (PLoS Neglected Tropical Diseases, 2020):

Legend:
[1] = Cytotoxicity in HepG2 cells (CellTiter-Glo); type: cell-based; settings: human, HepG2 cell line, ATP quantification
Protocol: (§1) To determine compound toxicity we used the HepG2 cell line (human hepatocellular carcinoma, ATCC HB-8065) as a widely used cell-based assay. The cells were maintained in MEM (Gibco) supplemented with 5% heat-inactivated FBS, 1 mM Sodium pyruvate (Gibco) and 1X MEM amino acids solution (Sigma). Briefly, cells were added to white-bottomed 96-well plates containing 100 μL of serial 2-fold dilutions of the H1RAs. After 24 hours of culture at 37 °C, the percentage of viable cells was determined by ATP quantification using the CellTiter-Glo luminescent Cell Viability Assay (Promega) according to the manufacturer’s instructions. […] At least three different assays were carried out to determine the IVTI of each compound, which was calculated as the ratio between the CC50 obtained in the HepG2 cell line and the EC50 determined in the L. major EVC [21]. To evaluate the cytotoxicity of AZ and FX in peritoneal macrophages, adherent cells obtained from peritoneal lavage of naïve mice (10,000/well) were exposed during 24 hours at 37°C to serial drug concentrations (0.09 μM—200 μM). Cell viability was determined by CellTiter-Glo (Promega).

[2] = Cytotoxicity in naive mouse peritoneal macrophages (CellTiter-Glo); type: cell-based; settings: read-out: CC50 (toxicity in peritoneal macrophages)
Protocol: as §1

| SMILES | CC50 at 24 h [1] | CC50 at 24 h [2] |
| --- | --- | --- |
| CN(C)CCOC(c1ccccc1)c1ccccc1 [Diphenhydramine] | 375 ± 17.8 µM |  |
| CC(C)(C(=O)O)c1ccc(C(O)CCCN2CCC(C(O)(c3ccccc3)c3ccccc3)CC2)cc1 (stereo not drawn) [Fexofenadine] | 822 ± 87.2 µM | ≥ 100 µM |
